No constants are given. Whether binding was seen depends on the method and setting. Some binding calls cover weakened binding; strength is not graded here.
Tests used:
[1] = biological target: rhesus CD40 (rhesus macaque) (UniProt F6SNI1); test: summary of the in vivo rhesus study (flow cytometry)
[2] = biological target: rhesus CD40 (rhesus macaque) (UniProt F6SNI1); test: flow cytometry, rhesus PBMCs cultured with MAB273 in vitro, competition with the CD40 staining antibody
[3] = biological target: rhesus CD40 (rhesus macaque) (UniProt F6SNI1); test: flow cytometry of rhesus PBMCs after administration in vivo; loss of binding of a competing fluorescent antibody

Amino acid sequences for entries named in this document (tags omitted). A change or cut given only in a name is not applied to a line headed by its entry. Chains listed by the source or under a name are the forms on record and can include a tag or linker.
rhesus CD40 (F6SNI1, form named): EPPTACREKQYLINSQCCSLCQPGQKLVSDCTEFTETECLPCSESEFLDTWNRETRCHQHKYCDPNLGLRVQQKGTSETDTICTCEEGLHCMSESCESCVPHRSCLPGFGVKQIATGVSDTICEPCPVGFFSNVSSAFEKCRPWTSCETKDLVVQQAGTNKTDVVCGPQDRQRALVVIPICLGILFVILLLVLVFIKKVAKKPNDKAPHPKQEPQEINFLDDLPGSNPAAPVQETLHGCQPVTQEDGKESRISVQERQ

Measured: binding

B1: MAB273 (antibody, V domains shown)
VH: EVQLEESGGGLVQPGGSLRLSCAASGFDFSSNTMCWVRQAPGKGLEWVACIYAGSSGSTYYASWAKGRFTISKDISKTTLYLQMNSLRAEDTATYFCARGLSRFSLWGQGTLVTVSS
VL: DIVMTQSPSSLSASVGDRVTITCQASQSISNYLAWYQQKPGQAPKLLIYDASKLASGVPSRFSGSGSGTDFTLTISSLQPEDFATYYCQGGDYYGSSYVVAFGGGTKVVIK
binds: all assays above
